From patent US20160311788A1, “Antifouling Compounds And Use Thereof” (National University of Singapore, priority 2008, published 2016)

Test system: cyprids of Balanus amphitrite
Assay: barnacle settlement assay
Format: in vivo
Conditions: Therapeutic Ratio, LD50/ED50
Method: Pure compounds were suspended in DMSO and sonicated to obtain a stock solution of 50 mg ml^−1 in DMSO. This stock solution is stored at −20° C. in 4 ml amber screw cap vials. For the bioassays, a small volume of stock solution was added to 1 μm filtered seawater in a glass scintillation vial. This suspension was then sonicated around 10 minutes. Serial dilutions were generated to the required range of concentrations. Serial dilution of the equivalent amounts of DMSO in seawater was used as the control.
The barnacle bioassay method used follows from the method first introduced by Rittschof et al. (1992), and subsequently by other authors (Willemsen et al., 1998). This method is now standard practice for many antifouling screening of novel compounds.
Barnacle settlement assays were based on methodology from Rittschof et al. (1992). Barnacle larvae from field-collected adults were reared on an algal mixture of 1:1 v/v of Tetraselmis suecica and Chaetoceros muelleri at 25° C., at approximately 5×10^5 cells per ml density. On this regime, larvae metamorphose to cyprids in 5 days. These cyprids were aged at 4° C. for 2-3 days, and 45-70% settlement after 24 hours (Willemsen et al., 1998).
Settlement tests were conducted in 7 ml neutral glass vials (Samco® T1 03N1) 34 mm by 23 mm diameter, with 20-40 cyprids per well. Test solutions were made up to twice the required final concentration. 0.5 ml of test solution was added into each well, and cyprids were transferred into each well in 0.5 ml of seawater. Assays were done in triplicate. As before, there were two sets of controls, a blank control consisting 3 tubes of seawater only, and DMSO control consisting of the equivalent dilution series with DMSO without compound. After 24 hours, larvae that had attached and metamorphosed were enumerated and the result expressed as percentage settlement. Larvae not attached were scored as not settled. The assays were repeated and the concentration that caused 50% settlement inhibition (ED50) was determined by pro bit analysis using a basic computer program (Lieberman, 1983), or by estimation from graphed data.

| Compound | TR |
| --- | --- |
| OC1(c2ccc(Cl)cc2)CCNCC1 [Compound 3.4] | 0.19 |
| O=C(C(c1ccccc1)c1ccccc1)N1CCCCC1 [Compound 4.1, 2,2-Diphenyl-1-(piperidin-1-yl)ethanone] | ~21.27* |
| CN1CCN(C(=O)C(c2ccccc2)c2ccccc2)CC1 [Compound 4.2, 1-(4-Methylpiperazin-1-yl)-2,2-diphenylethanone] | ~0.29* |
| CN1CCC(O)(c2ccccc2)CC1 [Compound 4.4] | 2.07 |
| O=C(C(c1ccccc1)c1ccccc1)N1CCC(O)(c2ccccc2)CC1 [Compound 4.5] | ~7.72* |
| O=C(C(c1ccccc1)c1ccccc1)N1CCC(CCO)CC1 [Compound 9.2] | ~0.98* |
| O=C(Cc1ccccc1)N1CCC(O)(c2ccccc2)CC1 [Compound 10.4] | ~3.33* |
| CCCCC(CCCC)C(=O)N(C)C [Compound 12.3] | ~18.12* |
| CCCCCCC(CCCC)C(=O)N1CCCCC1 (stereo not shown) [Compound 12.8] | greater than one |
| CN(C)C(=O)C(CCN1CCC(O)(c2ccc(Cl)cc2)CC1)(c1ccccc1)c1ccccc1 [LOP, loperamide, reference compound] | 4.22 |

Marks after values point to notes of the source that are not given here.
